# Reference: article PMC7862611, “Ribosome-bound Get4/5 facilitates the capture of tail-anchored proteins by Sgt2 in yeast” (Nature Communications, 2021)
# By UniProt entry, the sequences of proteins in these tests, tags left out.
# UniProt P0CX41: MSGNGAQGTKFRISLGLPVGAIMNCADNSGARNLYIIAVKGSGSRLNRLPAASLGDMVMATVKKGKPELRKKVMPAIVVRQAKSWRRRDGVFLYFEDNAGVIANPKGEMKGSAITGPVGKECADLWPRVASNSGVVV
# UniProt P53221: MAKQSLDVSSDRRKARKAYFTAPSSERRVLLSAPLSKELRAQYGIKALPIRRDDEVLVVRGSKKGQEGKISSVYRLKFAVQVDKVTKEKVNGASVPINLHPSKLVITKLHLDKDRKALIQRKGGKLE
# UniProt P49166: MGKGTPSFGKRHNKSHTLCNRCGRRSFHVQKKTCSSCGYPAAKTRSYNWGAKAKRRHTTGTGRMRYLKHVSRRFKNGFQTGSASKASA
# T1: His6Get5 (yeast (S. cerevisiae)) (UniProt Q12285)
# T1 sequence: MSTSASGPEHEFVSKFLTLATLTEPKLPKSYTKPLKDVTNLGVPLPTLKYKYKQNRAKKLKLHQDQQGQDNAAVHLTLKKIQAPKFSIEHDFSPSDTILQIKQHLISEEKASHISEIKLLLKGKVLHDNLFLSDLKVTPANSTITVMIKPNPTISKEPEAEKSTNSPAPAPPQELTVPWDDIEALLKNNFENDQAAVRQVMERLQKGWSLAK
# Biological target: T1, His6Get5 (yeast (S. cerevisiae))
# Assay: cross-linking + affinity purification with mass spectrometry; as a6 (BS3, denaturing Ni-NTA of His6Get5), gel slices, trypsin, LC-MS-MS; compared with untagged Get5
row,binding,Molecule
1,binds,Rpl23a (from UniProt P0CX41 1-137)
2,binds,Rpl26 (from UniProt P53221 1-127)
3,binds,Rpl37a (from UniProt P49166 1-88)
4,binds,Rps29a/b (S. cerevisiae (endogenous in yeast))
5,binds,"Rps19a (protein, UniProt P07280 1-144) MPGVSVRDVAAQDFINAYASFLQRQGKLEVPGYVDIVKTSSGNEMPPQDAEGWFYKRAASVARHIYMRKQVGVGKLNKLYGGAKSRGVRPYKHIDASGSINRKVLQALEKIGIVEISPKGGRRISENGQRDLDRIAAQTLEEDE"
6,binds,"Rpl20a (protein, UniProt P0CX23 1-172) MAHFKEYQVIGRRLPTESVPEPKLFRMRIFASNEVIAKSRYWYFLQKLHKVKKASGEIVSINQINEAHPTKVKNFGVWVRYDSRSGTHNMYKEIRDVSRVAAVETLYQDMAARHRARFRSIHILKVAEIEKTADVKRQYVKQFLTKDLKFPLPHRVQKSTKTFSYKRPSTFY"
7,binds,"Sgt2 (protein, UniProt Q12118 1-346) MSASKEEIAALIVNYFSSIVEKKEISEDGADSLNVAMDCISEAFGFEREAVSGILGKSEFKGQHLADILNSASRVPESNKKDDAENVEINIPEDDAETKAKAEDLKMQGNKAMANKDYELAINKYTEAIKVLPTNAIYYANRAAAHSSLKEYDQAVKDAESAISIDPSYFRGYSRLGFAKYAQGKPEEALEAYKKVLDIEGDNATEAMKRDYESAKKKVEQSLNLEKTVPEQSRDADVDASQGASAGGLPDLGSLLGGGLGGLMNNPQLMQAAQKMMSNPGAMQNIQKMMQDPSIRQMAEGFASGGGTPNLSDLMNNPALRNMAGNLFGGAGAQSTDETPDNENKQ"

# These are yes or no findings as the source states them, for the method shown. Binding seen in cells or lysates may run through a third protein. These calls come from enrichment with a bait or labelling near it, and not all partners need be listed. Tags and fused reporters may be left off the sequences shown.
